These are yes or no findings as the source states them, for the method shown. In cells and extracts the contact can be indirect. Some results given as binding are weak or reduced against the parent protein; the word gives no strength.
Assays:
[1] = biological target: PAC1R-SmBiT (human) (UniProt P41586); experiment: split reporter; NanoBiT in mouse primary cultured cortical neurons (DIV 3) infected with lentiviruses; PACAP dose series and time course to 60 min; time-lapse imaging with 1 μM PACAP
[2] = biological target: PAC1R-SmBiT (human) (UniProt P41586); experiment: split reporter; NanoBiT time-lapse luminescence imaging (Olympus LV200) of HeLa cells infected with lentiviruses, 1 μM PACAP, 3-60 min
[3] = biological target: PAC1R-SmBiT (human) (UniProt P41586); experiment: split reporter; NanoBiT in living HEK293T cells transfected with SmBiT and LgBiT fusions, Opti-MEM, Nano-Glo Live Cell Reagent, GloMAX discover; stimulated with PACAP (100 nM; dose series; up to 60 min); pretreatments for 30 min: 30 μM CMPD101 (inhibited), 20 μM H89 or 50 μM sphingosine (no effect)
[4] = biological target: PAC1R (human (endogenous in HEK293T)) (UniProt P41586); experiment: co-IP; HEK293T cells stimulated with 1 μM PACAP for 15 min, cross-linked with 2.5 mM DSP for 30 min at room temperature, lysed in RIPA buffer; antibody-coupled protein G-Sepharose beads, 2 h at 4°C; blots with anti-PAC1R and anti-β-arrestin1/2

Protein sequences, listed by entry. Tags and fused reporters are not part of them. Lines headed by an entry give the natural chain unless they say otherwise; changes in a name come on top. Chains listed by the source or under a name are the forms on record and can include a tag or linker. Residues count along the entry.
PAC1R (human (endogenous in HEK293T)) (P41586, residues 21-468): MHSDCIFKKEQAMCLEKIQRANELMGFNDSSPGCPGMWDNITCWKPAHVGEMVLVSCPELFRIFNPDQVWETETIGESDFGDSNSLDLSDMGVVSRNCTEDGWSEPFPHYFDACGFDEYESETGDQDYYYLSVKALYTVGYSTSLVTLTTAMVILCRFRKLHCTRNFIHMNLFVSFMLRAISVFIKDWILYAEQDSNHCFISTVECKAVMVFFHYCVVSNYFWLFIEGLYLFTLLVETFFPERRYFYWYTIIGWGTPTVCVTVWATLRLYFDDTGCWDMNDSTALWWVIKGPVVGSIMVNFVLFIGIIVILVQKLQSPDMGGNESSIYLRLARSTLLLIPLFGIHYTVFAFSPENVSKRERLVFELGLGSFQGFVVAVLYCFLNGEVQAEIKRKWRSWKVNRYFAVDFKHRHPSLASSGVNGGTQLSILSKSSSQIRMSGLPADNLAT
PAC1R-SmBiT (P41586, form named): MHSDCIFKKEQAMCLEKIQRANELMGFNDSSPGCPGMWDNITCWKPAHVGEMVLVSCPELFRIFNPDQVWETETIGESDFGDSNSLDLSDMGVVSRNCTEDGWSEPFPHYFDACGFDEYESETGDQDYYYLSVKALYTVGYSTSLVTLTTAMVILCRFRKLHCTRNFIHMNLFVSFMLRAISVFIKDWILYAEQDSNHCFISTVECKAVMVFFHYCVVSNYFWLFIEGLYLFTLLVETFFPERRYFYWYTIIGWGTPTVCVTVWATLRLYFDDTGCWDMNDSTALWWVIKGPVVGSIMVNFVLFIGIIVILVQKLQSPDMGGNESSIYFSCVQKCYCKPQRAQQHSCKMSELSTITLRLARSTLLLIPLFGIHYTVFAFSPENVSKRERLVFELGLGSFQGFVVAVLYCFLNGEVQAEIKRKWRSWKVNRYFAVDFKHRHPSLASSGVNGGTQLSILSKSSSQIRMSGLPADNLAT
UniProt P32121: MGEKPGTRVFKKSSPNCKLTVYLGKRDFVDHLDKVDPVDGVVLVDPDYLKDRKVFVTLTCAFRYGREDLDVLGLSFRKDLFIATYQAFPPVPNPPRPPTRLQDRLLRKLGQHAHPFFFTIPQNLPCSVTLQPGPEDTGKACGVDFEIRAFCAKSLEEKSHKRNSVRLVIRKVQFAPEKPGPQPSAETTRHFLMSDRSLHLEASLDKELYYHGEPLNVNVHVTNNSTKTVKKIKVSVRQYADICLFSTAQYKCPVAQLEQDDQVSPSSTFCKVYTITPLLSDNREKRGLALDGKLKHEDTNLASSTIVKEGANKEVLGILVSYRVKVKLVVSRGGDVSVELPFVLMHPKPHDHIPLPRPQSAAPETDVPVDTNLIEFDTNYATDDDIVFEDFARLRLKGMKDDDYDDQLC
UniProt P49407: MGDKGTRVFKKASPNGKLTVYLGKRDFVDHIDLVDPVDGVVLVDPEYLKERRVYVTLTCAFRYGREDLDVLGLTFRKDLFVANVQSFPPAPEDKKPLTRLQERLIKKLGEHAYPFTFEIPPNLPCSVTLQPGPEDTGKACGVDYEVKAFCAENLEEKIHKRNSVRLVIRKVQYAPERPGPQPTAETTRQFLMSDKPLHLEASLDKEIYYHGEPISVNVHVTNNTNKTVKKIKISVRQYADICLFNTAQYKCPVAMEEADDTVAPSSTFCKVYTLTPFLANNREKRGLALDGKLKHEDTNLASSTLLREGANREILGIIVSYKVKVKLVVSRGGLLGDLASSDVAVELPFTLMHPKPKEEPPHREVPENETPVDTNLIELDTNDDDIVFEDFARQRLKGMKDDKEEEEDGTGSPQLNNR

Substance | binding [1] | binding [2] | binding [3] | binding [4]
LgBiT-β-arrestin2 (from UniProt P32121 1-409) | binds | binds | binds | –
β-arrestin1 (from UniProt P49407 1-418) | – | – | – | binds
β-arrestin1-LgBiT (from UniProt P49407 1-418) | binds | binds | binds | –
β-arrestin2 (from UniProt P32121 1-409) | – | – | – | binds

Source: paper PMC5937772
